## Percent effect of library compounds

Source: ChEMBL document CHEMBL3988442, “University of Dundee, Small-Polar-MMV Screening Library” (2021).

Values are the deposited “Percent Effect”, in %. The controls that fix the scale are not given in the record; negative values are as filed. The compounds are a random part of those screened.

Mtb glucose medium: 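Phenotypic screen: M. tuberculosis growth, glucose 7H9 medium, 3 days; the read-out is not stated. Tested at 500 µM. Direction is inferred from retests: higher values go with more growth inhibition. Of about 18,000 compounds tested this way, about 1,400 (7.9%) reached 50% or more in at least one test.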
Mtb cholesterol medium: 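Growth of Mycobacterium tuberculosis over 4 days (cholesterol / DPPC medium with tyloxapol); the read-out is not stated. Concentration: 500 µM. The record gives no direction; compounds that gave an IC50 in retests scored well above the rest, so higher reads as more growth inhibition. Of about 18,000 compounds tested this way, about 900 (5%) reached 50% or more in at least one test.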

compound | Mtb glucose medium | Mtb cholesterol medium
COC(=O)CC(C)(N)c1ccccc1 (stereo unspecified) | -2.449% | 3.251%
COC(=O)N1CCC(NC(C)CCn2cccn2)CC1 (stereo unspecified) | 11.46% | 12.01%
CCN1CC2(CCN(CC3CCCCO3)CC2)CC1=O (stereo unspecified) | 8.652% | 7.978%
CCC(=O)Nc1nc2c(s1)COCC2 | 10.53% | 6.8%
O=C(CCc1cccnc1)Nc1ncccc1Br | -9.808% | -11.31%
CCN(CC)CCNCCCN | 2.513% | -1.071%
CN(C)C(C)(C)CNC(=O)c1c(O)cccc1F | -0.4109% | -5.453%
CC(C)CCC(=O)N[C@@H]1CN(C)C[C@H]1CN(C)C | 15.37% | 9.861%
CN(Cc1ccsc1)CC(O)COCc1ccco1 (stereo unspecified) | 45.64% | 49.4%
O=C(NCC1(O)CCOCC1)Nc1cccc(F)c1 | 13.78% | 15.41%
COc1ccc(CN(C)C(=O)N2CCOCC2)cc1F | 35.59% | 37.73%
CN1CCN(C(=O)C2CCC(CN)CC2)CC1 (stereo unspecified) | -2.798% | -9.667%
CC(C)c1nc(Cn2ncn(C)c2=O)cs1 | 3.926% | -2.57%
CN(C)C(CNC1=NCCN1)c1ccsc1 (stereo unspecified) | 22.92% | 11.97%
Cc1ccc(C(=O)COC(=O)c2cccnc2N)cc1 | 26.44% | 12.1%
Cc1cccc(C(=O)N[C@@H](C)C(N)=O)c1Br | -15.89% | -14.92%
CNC(=O)Nc1ccc(OC)c(OCCOC)c1 | 57% | 57.14%
NCC(=O)N1CCCC(COc2ccc(F)cc2)C1 (stereo unspecified) | 53.57% | 21.21%
CS(=O)(=O)NCCNCc1cnc(-c2cccs2)s1 | 5.068% | -5.484%
CN(C)C(=O)N1CCC(C(=O)N2CCCC2)CC1 | 20.22% | 16.32%
COc1cc(C)c(C(=O)N(C)C)cc1OC | 11.75% | 2.373%
Cc1cc(C(=O)N2C[C@H]3CC[C@@H](C2)[C@H]3O)c(C)o1 | 9.777% | -2.356%
N#Cc1sc(-c2ccccc2)nc1N | 5.25% | 2.697%
CN(C)C(=O)c1ccc(CSc2nncs2)cc1 | 40.04% | 36.34%
N[C@H]1CN(C(=O)Cc2cc(F)ccc2F)C[C@@H]1C1CC1 | 23.76% | 23.41%
CCC1(N)CCOCC1 | -10.5% | -16.27%
CNCC(=O)NC1CCN(Cc2ccc(Br)cc2)CC1 | 59.03% | 52.31%
CC(=O)c1ccc(C(=O)N2CCOCC2C#N)cc1 (stereo unspecified) | 4.737% | 0.292%
NC(=O)NCC(=O)NCc1ccccc1-n1ccnc1 | 6.962% | -3.612%
Cc1noc(N)c1Cl | 29.8% | 13.1%
CC(C)(C)NC(=O)CNC(=O)NCCc1cccs1 | 26.22% | 4.756%
COCCNC1CCCSC1 (stereo unspecified) | -3.374% | -7.33%
CN1CCC(CNC(=O)c2ccc[nH]2)(N(C)C)CC1 | 8.547% | 6.6%
NC1CC(c2cc(NCCc3cn[nH]c3)ncn2)C1 (stereo unspecified) | -6.454% | 13.02%
CN(C)c1ccc(CNC(=O)OCC(F)(F)F)cn1 | 1.233% | -2.308%
Cn1cncc1CCNC(=O)c1ccncc1Cl | 0.7553% | -7.449%
CC(CO)NC(=O)CCC1CCCCC1 (stereo unspecified) | 9.805% | 8.745%
CCOc1cccc(CN(C)S(=O)(=O)c2cccs2)n1 | 77.93% | 76.27%
CC1CCCN(S(=O)(=O)N(C)Cc2ccco2)C1 (stereo unspecified) | 54.19% | 42.99%
CC(O)COc1ccccc1CN (stereo unspecified) | -8.795% | -3.582%
CN(C)CCCOC1CCNCC1 | -1.926% | -1.086%
CC(C)(C)NC(=O)N1CCCC(CC(N)=O)C1 (stereo unspecified) | -5.757% | -10.12%
Cc1ccc(CN2CC(O)(CC#N)C2)s1 | -9% | -13.54%
COCCNC(=O)C1CCN(Cc2ccccc2)CC1 | 11.68% | 12.87%
COc1ccsc1C(=O)NCCc1nc(N)no1 | 13.17% | 15%
CNC(=O)NCc1ccc(S(=O)(=O)N(C)C)s1 | 7.277% | -10.85%
CCc1cc(NCc2cccnc2)n2nccc2n1 | 25.91% | 9.084%
Cc1nnc(SCC(=O)C(C)(C)C)[nH]1 | 6.14% | 5.099%
Nc1c[nH]nc1C(=O)NCc1cccc(Cl)c1 | 21.02% | -12.65%
CC(C)n1ccnc1CN1CCN(c2nc[nH]n2)CC1 | 3.897% | -15.68%
CN(C)[C@H]1CN(Cc2ccc(F)cc2Cl)C[C@@H]1O | 25.83% | 14.38%
C=C(C)CN1CCC(C(N)=O)CC1 | -1.959% | -13.89%
CCS(=O)(=O)NCc1cccc(N2CCCCC2=O)c1 | -3.531% | -14.04%
CC(C)CNC(=O)N1CCCN(S(C)(=O)=O)CC1 | 7.935% | 6.183%
COc1cccc(S(=O)(=O)CCN2CCN(C)CC2)c1 | 31.5% | 89.57%
Cn1nnnc1C1CCCN(C(=O)c2ccccc2)C1 (stereo unspecified) | 0.2706% | -4.995%
CCOC(=O)C1CCN(C(=O)c2nccnc2N)CC1 | 8.993% | 7.321%
CC(O)C(C)(C)NC(=O)CN1CCc2ccccc21 (stereo unspecified) | 22.6% | 7.747%
CC(=O)NC1CCN(Cc2ccc(F)c(F)c2)CC1 | -4.025% | -3.661%
CN1CC(NC(=O)CCC(=O)c2cccs2)CCC1=O (stereo unspecified) | -9.494% | -18.92%
COc1cccc(CNC(=O)NC(C)C)c1O | 12.52% | -6.657%
CCOc1ccccc1CNCCSc1nnnn1C | 11.2% | -9.127%
CN(C)C(=O)c1ccc(N)nn1 | 7.225% | -1.805%
CC(C)CCOCC(=O)NC1CCc2nccn2C1 (stereo unspecified) | -2.2% | -11.16%
CC(C)C(=O)N1CCN(CCc2ccccn2)CC1 | 8.732% | -0.3122%
C=C(C)CNc1nc2nonc2nc1NCCOC | 7.427% | -4.338%
CCC1(NC(=O)c2coc(S(=O)(=O)N(C)C)c2)CCC1 | 67.83% | 29.77%
COc1ccc(C(N)c2ccc(OC)cc2OC)cc1 (stereo unspecified) | 104.8% | 53.84%
Cc1cc(CN(C)C(=O)C(C)n2cncn2)no1 (stereo unspecified) | -11.03% | -17.77%
NCc1noc(-c2ccsc2)n1 | -8.447% | -13.93%
C[C@@H](N)c1ccc(F)cn1 | 12.73% | 8.287%
COc1cccc(CCNC(=O)C(C)O)c1OC (stereo unspecified) | 25.93% | 2.755%
CC1CN(c2ccnc3ccc(Cl)cc23)CCS1(=O)=O (stereo unspecified) | 2.794% | -2.968%
Cc1ccc(Cl)cc1NCC(=O)N1CCNC1=O | 12.51% | -1.091%
CCc1ccc(CN2CCOCC(CO)C2)nc1 (stereo unspecified) | 9.483% | -1.735%
O=S(=O)(CCNc1cncc(Cl)n1)N1CCSCC1 | 78.52% | 74.08%
NCc1cccc(-n2ccnn2)c1 | 9.12% | 5.698%

For reference, 9 entries once more:

- COC(=O)CC(C)(N)c1ccccc1 (stereo unspecified) : Mtb glucose medium: -2.449%; Mtb cholesterol medium: 3.251%
- CC(C)c1nc(Cn2ncn(C)c2=O)cs1 : Mtb glucose medium: 3.926%; Mtb cholesterol medium: -2.57%
- CC(=O)NC1CCN(Cc2ccc(F)c(F)c2)CC1 : Mtb glucose medium: -4.025%; Mtb cholesterol medium: -3.661%
- Cc1cc(CN(C)C(=O)C(C)n2cncn2)no1 (stereo unspecified) : Mtb glucose medium: -11.03%; Mtb cholesterol medium: -17.77%
- Cc1nnc(SCC(=O)C(C)(C)C)[nH]1 : Mtb glucose medium: 6.14%; Mtb cholesterol medium: 5.099%
- CNC(=O)NCc1ccc(S(=O)(=O)N(C)C)s1 : Mtb glucose medium: 7.277%; Mtb cholesterol medium: -10.85%
- N#Cc1sc(-c2ccccc2)nc1N : Mtb glucose medium: 5.25%; Mtb cholesterol medium: 2.697%
- CS(=O)(=O)NCCNCc1cnc(-c2cccs2)s1 : Mtb glucose medium: 5.068%; Mtb cholesterol medium: -5.484%
- NC(=O)NCC(=O)NCc1ccccc1-n1ccnc1 : Mtb glucose medium: 6.962%; Mtb cholesterol medium: -3.612%